# Data: PubChem BioAssay AID540276 (National Center for Advancing Translational Sciences (NCATS), 2011)
# Among all 300,000 compounds or so, about 5,400 (1.8%) were called active. The inconclusive results got no clear call from the source; some entries with a clear call stand among them for comparison. Calls follow the shape of the full dose curve; tested in HEK293 cells. Potencies beside an inconclusive call are fits to weak or partial responses and may not hold up.
# Experiment: qHTS for inhibitors of binding or entry into cells for Marburg Virus
# Conditions: Marburg virus pseudotyped entry inhibition, cell reporter; series mostly up to 37.8 µM
# Potency is read from the fitted curve at half-maximal effect.
row,Compound,Potency
1,O=C(/C=C\c1ccc(-c2cccc([N+](=O)[O-])c2)o1)N1CCOCC1,"inconclusive: 3.55 µM [activator, single point]"
2,O=C(COc1ccc(Cl)cc1Cl)NCC(=O)N/N=C/c1c[nH]c2ccccc12,"inconclusive: 1.26 µM [activator, single point]"
3,CCCC(=O)OCCNc1cc(Sc2nccn2C)c2nonc2c1[N+](=O)[O-],"inconclusive: 1.3 µM [inhibitor, full curve]"
4,COc1ccccc1NC(=O)c1ccc2snnc2c1,"inconclusive: 22.4 µM [activator, partial curve, poor fit]"
5,COc1ccccc1CCNC(=O)C(=O)Nc1cc2c3c(c1)C(C)C(=O)N3CCC2 (stereo not drawn),"inconclusive: 2.51 µM [inhibitor, partial curve]"
6,CCOc1cc(C(=O)Nc2cccc3cccnc23)cc(OCC)c1OCC,"inconclusive: 35.5 µM [inhibitor, single point]"
7,COc1cc(S(=O)(=O)N2CCCCCC2)ccc1-n1cnnn1,"inconclusive: 7.3 µM [inhibitor, single point]"
8,COCC(C)Nc1nc(C)c(C(C)=O)s1 (stereo not drawn),"inconclusive: 1.41 µM [activator, partial curve, poor fit]"
9,Cc1ccc(C(=O)CCNc2ccc(Cl)cc2)o1,"inconclusive: 7.94 µM [activator, partial curve, poor fit]"
10,Cc1c(Cc2ccccc2)c(=O)oc2cc(OCC(=O)NCc3ccccn3)ccc12,inactive
11,O=C(Nc1ccccc1)c1ccc(Br)c(S(=O)(=O)Nc2cccnc2)c1,"inconclusive: 5.62 µM [activator, single point]"
12,CCCC(=O)N(Cc1cc2cc(C)ccc2[nH]c1=O)c1ccccc1OC,"inconclusive: 20 µM [inhibitor, partial curve, poor fit]"
13,CCOC(=O)c1cnn(-c2ncnc3c2cnn3C)c1N,"inconclusive: 1.26 µM [activator, partial curve, poor fit]"
14,CCOc1ccc(NS(=O)(=O)c2cc(NC(=O)c3cccc(C)c3)ccc2Cl)cc1,"inconclusive: 3.16 µM [inhibitor, single point]"
15,O=C(Cc1cccc2ccccc12)Nc1ccc2oc(-c3ccccc3)nc2c1,inactive
16,Cc1ccc(N(C(=O)CNC(=O)c2ccco2)C(C(=O)NC2CCCC2)c2ccncc2)cc1F (stereo not drawn),inactive
17,COC(=O)CC1C(=O)NCCN1C(=S)Nc1cccc(C)c1 (stereo not drawn),inactive
18,COc1ccccc1N1CC(C)(C)C(=O)N(C(=O)c2c(F)cccc2Cl)C1=S,"inconclusive: 12.6 µM [inhibitor, partial curve, poor fit]"

# Retrieved by structure from above, two records:
row,Compound,Potency
16,Cc1ccc(N(C(=O)CNC(=O)c2ccco2)C(C(=O)NC2CCCC2)c2ccncc2)cc1F (stereo not drawn),inactive
2,O=C(COc1ccc(Cl)cc1Cl)NCC(=O)N/N=C/c1c[nH]c2ccccc12,"inconclusive: 1.26 µM [activator, single point]"
